PubChem BioAssay AID328 (DTP/NCI, 2004)
The list does not hold the whole screen: it gathers tests that were run many times, whatever their T/C, doses with no T/C, and many T/C values between a quarter and a half above the control. Other doses and runs of a compound stand elsewhere. T/C gives the treated animals as a percentage of the vehicle group. Some doses have a count of surviving animals in place of a T/C: the source holds a T/C of zero for them, seemingly a mark for toxic or unscored doses. Some doses without a T/C left all or most animals alive at the check, yet need not have been tolerated: the source hardly ever lists a survival T/C far under the control, and the zero likely stands for such cases as well. Survivors were counted at the toxicity check, usually on the fifth day, unless a day is given; later deaths do not show. Schedules are NCI's codes, taken here to give the interval after Q, in days (D) or hours (H), and the number of doses after X. Where survival is the endpoint, the PubChem record calls one and a half times the control and up active, and a quarter to a half above the control has no call in these data; cut-offs in other NCI protocols can differ. Some entries were tested several times; the values are given in rising order. Some T/C values are followed by the survivors on the day toxicity was checked, most often the fifth; where none is given, no animal had died by that day.

Tested on: BDF1 mice, P388 leukemia ip, median survival T/C
Experiment: NCI In Vivo Anticancer Drug Screen. Data for tumor model P388 Leukemia (intraperitoneal) in B6D2F1 (BDF1) mice
Conditions: T/C endpoint: median survival time, higher T/C = longer survival
In short: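 Survival ratio, drug arm over vehicle arm, in mice with a transplanted tumour.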

[1] = dose: 12.5 mg/kg/injection, schedule: Q01DX009 (ip), vehicle: saline with Tween-80
[2] = dose: 100.0 mg/kg/injection, schedule: Q01DX009 (ip), vehicle: Klucel (hydroxypropylcellulose) (HPC)
[3] = dose: 50.0 mg/kg/injection, schedule: Q04DX003 (ip), vehicle: saline with Tween-80
[4] = dose: 25.0 mg/kg/injection, schedule: Q01DX009 (ip), vehicle: saline with Tween-80
[5] = dose: 200.0 mg/kg/injection, schedule: Q01DX009 (ip), vehicle: saline with Tween-80
[6] = dose: 400.0 mg/kg/injection, schedule: Q01DX009 (ip), vehicle: saline with Tween-80
[7] = dose: 100.0 mg/kg/injection, schedule: Q01DX009 (ip), vehicle: saline with Tween-80
[8] = dose: 50.0 mg/kg/injection, schedule: Q01DX009 (ip), vehicle: saline
[9] = dose: 200.0 mg/kg/injection, schedule: Q01DX009 (ip), vehicle: saline

SMILES: [Cl][Hg][Cl].c1cnccn1
- T/C (dose: 0.12 mg/kg/injection, schedule: Q01DX009 (ip), vehicle: saline with Tween-80): 127 % of control
- survivor count (dose: 1.0 mg/kg/injection, schedule: Q01DX009 (ip), vehicle: saline with Tween-80): 6 of 6
- survivor count (dose: 2.0 mg/kg/injection, schedule: Q01DX009 (ip), vehicle: saline with Tween-80): 6 of 6
- survivor count (dose: 8.0 mg/kg/injection, schedule: Q01DX009 (ip), vehicle: saline with Tween-80): 5 of 6
- T/C (dose: 8.0 mg/kg/injection, schedule: Q04DX003 (ip), vehicle: saline with Tween-80): 125 % of control [5 of 6 alive]
- survivor count (dose: 12.0 mg/kg/injection, schedule: Q04DX003 (ip), vehicle: saline with Tween-80): 3 of 6

SMILES: Cc1cc(C)c(CCl)cc1CCl
- T/C (dose: 7.0 mg/kg/injection, schedule: Q01DX009 (ip), vehicle: saline with Tween-80): 125 and 136 % of control
- T/C (dose: 11.0 mg/kg/injection, schedule: Q01DX009 (ip), vehicle: saline with Tween-80): 136 % of control
- T/C [1]: 127 % of control
- T/C (dose: 16.0 mg/kg/injection, schedule: Q01DX009 (ip), vehicle: saline with Tween-80): 144 % of control
- T/C (dose: 16.5 mg/kg/injection, schedule: Q01DX009 (ip), vehicle: saline with Tween-80): 129 % of control
- T/C (dose: 25.0 mg/kg/injection, schedule: Q01DX009 (ip), vehicle: saline with Tween-80, evaluated on day 20): 136 % of control
- T/C (dose: 25.0 mg/kg/injection, schedule: Q01DX009 (ip), vehicle: saline with Tween-80, evaluated on day 30): 125 [5 of 6 alive] and 141 % of control
- T/C (dose: 37.5 mg/kg/injection, schedule: Q01DX009 (ip), vehicle: saline with Tween-80): 133 % of control

SMILES: CSc1ssc(=Nc2ccc(C)cc2)c1-c1ccccc1
- survivor count [2]: 6 of 6

SMILES: O=C(CCCc1ccc(N(CCCl)CCCl)cc1)Nc1ccccc1
- T/C [3]: 130 % of control

SMILES: NC(=S)N/N=C\c1nccc2ccc(N)cc12
- T/C [1]: 144 % of control
- T/C [4]: 139 % of control

SMILES: C=CCN(CC=C)c1ncnc2[nH]ncc12
- survivor count [5]: 4 of 6
- survivor count [6]: 4 of 6

SMILES: OC(Cc1ccc2ccccc2n1)C(Cl)(Cl)Cl (centres undefined)
- survivor count [7]: 6 of 6
- survivor count [5]: 6 of 6

SMILES: COc1cc(NS(C)(=O)=O)ccc1Nc1c2ccc(Cl)cc2nc2c(OC)cccc12
- T/C (dose: 6.5 mg/kg/injection, schedule: Q01DX005 (iv), vehicle: water): 138 % of control [9 of 10 alive]
- survivor count (dose: 13.0 mg/kg/injection, schedule: Q01DX005 (iv), vehicle: water): 8 of 10
- T/C (dose: 13.0 mg/kg/injection, schedule: Q04DX003 (iv), vehicle: water): 135 % of control
- survivor count [4]: 6 of 6
- survivor count (dose: 26.0 mg/kg/injection, schedule: Q01DX005 (iv), vehicle: water): 3 of 10
- survivor count (dose: 50.0 mg/kg/injection, schedule: Q01DX009 (ip), vehicle: saline with Tween-80): 5 of 6

SMILES: CC(=O)CC(C)=O.CC(=O)CC(C)=O.CC(=O)CC(C)=O.[In]
- survivor count [8]: 5 of 6
- survivor count (dose: 100.0 mg/kg/injection, schedule: Q01DX009 (ip), vehicle: saline): 3 of 6
- survivor count [9]: 0 of 6
- survivor count (dose: 400.0 mg/kg/injection, schedule: Q04DX003 (ip), vehicle: saline): 0 of 6

SMILES: CC(O)CN(CCN(CC(C)O)CC(C)O)CC(C)O.[Cl-].[Co+2] (centres undefined)
- T/C (dose: 25.0 mg/kg/injection, schedule: Q01DX009 (ip), vehicle: saline): 126 % of control
- T/C [8]: 137 % of control

SMILES: O=C(CBr)c1ccc(/C=C/c2ccc(Cl)cc2)cc1
- survivor count [5]: 0 of 6
- survivor count (dose: 200.0 mg/kg/injection, schedule: Q04DX003 (ip), vehicle: saline with Tween-80): 2 of 6

SMILES: IC1CCCOC1[n+]1ccccc1 (centres undefined)
- survivor count [3]: 6 of 6

SMILES: COC(=O)CCSC(c1ccccc1)(c1ccccc1)c1ccccc1
- survivor count (dose: 175.0 mg/kg/injection, schedule: Q01DX009 (ip), vehicle: Klucel (hydroxypropylcellulose) (HPC)): 6 of 6
- survivor count (dose: 350.0 mg/kg/injection, schedule: Q01DX009 (ip), vehicle: Klucel (hydroxypropylcellulose) (HPC)): 6 of 6

SMILES: CCOC(=O)C1CNc2ccccc2N1 (centres undefined)
- survivor count (dose: 28.75 mg/kg/injection, schedule: Q04DX003 (ip), vehicle: Klucel (hydroxypropylcellulose) (HPC)): 6 of 6
- survivor count (dose: 170.0 mg/kg/injection, schedule: Q01DX009 (ip), vehicle: Klucel (hydroxypropylcellulose) (HPC)): 3 of 6
- survivor count (dose: 170.0 mg/kg/injection, schedule: Q04DX003 (ip), vehicle: Klucel (hydroxypropylcellulose) (HPC)): 2 of 6
- survivor count (dose: 260.0 mg/kg/injection, schedule: Q01DX001 (ip), vehicle: Klucel (hydroxypropylcellulose) (HPC)): 0 of 6
- survivor count (dose: 260.0 mg/kg/injection, schedule: Q04DX003 (ip), vehicle: Klucel (hydroxypropylcellulose) (HPC)): 1 of 6
- survivor count (dose: 390.0 mg/kg/injection, schedule: Q01DX001 (ip), vehicle: Klucel (hydroxypropylcellulose) (HPC)): 0 of 6
- survivor count (dose: 390.0 mg/kg/injection, schedule: Q04DX003 (ip), vehicle: Klucel (hydroxypropylcellulose) (HPC)): 0 of 6

SMILES: Cc1nc(C(N)=O)c(=O)[nH]c1C
- survivor count (dose: 33.0 mg/kg/injection, schedule: Q04DX003 (ip), vehicle: saline): 6 of 6
- T/C (dose: 50.0 mg/kg/injection, schedule: Q04DX003 (ip), vehicle: saline sonified): 141 % of control
- survivor count (dose: 75.0 mg/kg/injection, schedule: Q04DX003 (ip), vehicle: saline): 6 of 6

SMILES: CC(C)S(=O)(=O)/C(Cl)=C(/Cl)C(Cl)=C(Cl)Cl
- survivor count (dose: 44.0 mg/kg/injection, schedule: Q01DX009 (ip), vehicle: Klucel (hydroxypropylcellulose) (HPC)): 4 of 6
- survivor count (dose: 66.0 mg/kg/injection, schedule: Q01DX009 (ip), vehicle: Klucel (hydroxypropylcellulose) (HPC)): 6 of 6
- survivor count [2]: 6 of 6
- survivor count (dose: 150.0 mg/kg/injection, schedule: Q01DX009 (ip), vehicle: Klucel (hydroxypropylcellulose) (HPC)): 6 of 6

SMILES: NCCCOc1ccc([N+](=O)[O-])cc1Cl
- survivor count [9]: 2 of 6

SMILES: [N-]=[N+]=NCC(=O)NCc1cnccn1
- T/C [8]: 126 % of control

SMILES: NC(=NCc1ccccc1)c1ccc(N=C(N)c2ccc(C(N)=Nc3ccc(C(N)=NCc4ccccc4)cc3)cc2)cc1
- T/C (dose: 6.6 mg/kg/injection, schedule: Q01DX009 (ip), vehicle: saline): 125 % of control
- T/C (dose: 10.0 mg/kg/injection, schedule: Q01DX009 (ip), vehicle: saline): 133 % of control
- T/C (dose: 15.0 mg/kg/injection, schedule: Q01DX009 (ip), vehicle: saline): 141 % of control

SMILES: CCCCCN(C)/N=N/c1nc[nH]c1C(N)=O
- T/C [7]: 125 % of control
- survivor count [6]: 5 of 6
- survivor count (dose: 600.0 mg/kg/injection, schedule: Q04DX003 (ip), vehicle: Klucel (hydroxypropylcellulose) (HPC)): 5 of 6

SMILES: CC1(C)N=C(N)N=C(N)N1c1ccc(OCCOc2ccc(NC(=O)CBr)cc2)cc1
- T/C (dose: 10.0 mg/kg/injection, schedule: Q01DX009 (ip), vehicle: saline with Tween-80): 125 % of control
- T/C (dose: 44.0 mg/kg/injection, schedule: Q01DX009 (ip), vehicle: saline with Tween-80): 140 % of control
- T/C (dose: 44.0 mg/kg/injection, schedule: Q04DX003 (ip), vehicle: saline sonified): 135 % of control
- T/C (dose: 66.0 mg/kg/injection, schedule: Q01DX009 (ip), vehicle: saline with Tween-80): 145 % of control
- T/C (dose: 66.0 mg/kg/injection, schedule: Q04DX003 (ip), vehicle: saline sonified): 135 % of control
- survivor count (dose: 400.0 mg/kg/injection, schedule: Q01DX009 (ip), vehicle: saline): 5 of 6

SMILES: N/C(=N/O)c1[nH]cnc1N
- survivor count (dose: 6.25 mg/kg/injection, schedule: Q01DX009 (ip), vehicle: water): 6 of 6
- survivor count (dose: 200.0 mg/kg/injection, schedule: Q01DX009 (ip), vehicle: water): 2 of 6
